Primary screen of a compound library

Measurements from “University of Dundee, Small-Polar-MMV Screening Library” (2021), ChEMBL document CHEMBL3988442.

The filed quantity is “Percent Effect” (%).
The record does not define 0% and 100%; most values in the screen are far below 50% and negative numbers occur (in some assays of this library far below -100).
This is an unselected part of the compounds tested.

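Whole-cell assay for inhibitors of Mycobacterium tuberculosis growth, labelled Cornell in the record; the read-out is not stated. The concentration is filed as 10 mM, unlikely as a test dose, so the dose is not known. Higher means stronger inhibition (inferred from two other growth screens of the library). About 53,000 compounds were tested under these conditions; 1.7% (about 900) showed 50% or more at least once.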

structure	effect
CCN(CC)CC1CN(Cc2nccs2)Cc2nccn2C1.O=C(O)C(F)(F)F.O=C(O)C(F)(F)F (configuration not stated)	9.339%
CC(C)NC(=O)c1ccc2nnc(C3CN(C)CCN3C)n2c1.O=C(O)C(F)(F)F.O=C(O)C(F)(F)F (configuration not stated)	-3.473%
O=C(CC(F)(F)F)N1CCc2onc(Cn3cccn3)c2C1	8.327%
O=C1NCCCC12CCN(Cc1ccc(SC3CCCCC3)o1)C2 (configuration not stated)	38.75%
Cc1ncc(CNc2cnccc2CO)s1	-3.843%
[H][C@@]12CCN(CCOC)C[C@@]1([H])[C@H](C(=O)Nc1cccnc1)CCO2	-7.222%
Cn1cc(NC(=O)c2cccc(C(F)(F)F)c2)c(=O)n(C)c1=O	19.89%
COc1c(CNCc2cccc(Cn3cncn3)c2)c(C)nn1C	18.73%
CCc1nc(CN(C)C(=O)NC(C)c2cccc(NC(C)=O)c2)cs1 (configuration not stated)	2.876%
O=c1oc(-c2ccc(F)cc2)nn1CCc1ccncc1	4.067%
Cc1nc(N2CCN(C(=O)c3ccccc3)CC2)c2cnn(C)c2n1	-26.72%
CC(C(=O)Nc1cnn(CC(N)=O)c1)c1ccc(Cl)s1 (configuration not stated)	23.7%
Cc1nnc(NCCn2nc(C)c(Cl)c2C)o1	3.498%
CC(C)N(CCCNC(=O)C1CCOCC1)S(C)(=O)=O	8.845%
CN(C)c1ncc(NC(=O)c2ccccc2C(F)(F)F)cn1	22.72%
CCCS(=O)(=O)N1CC(=O)N(Cc2cccc(OC)c2OC)CC(O)C1 (configuration not stated)	0.4174%
CN(CC1(O)CCCC1)C(=O)c1cccc(Nc2cnccn2)c1	15.37%
Cc1cc(CN2CCN(CCOc3cccc(C#N)c3)CC2)no1	16.62%
Cc1ncc2c(n1)CN(CC1CCCCO1)CC2 (configuration not stated)	11.14%
CC(c1nc(C2CC2)no1)N1CCN(CCOCC(F)(F)F)CC1 (configuration not stated)	14.57%
O=C(CCNc1ncccn1)NCc1ccc(Br)s1	-5.707%
CN(C)C(c1ccccn1)[C@H]1CC[C@H](CNC(=O)C2CC2)CC1 (some centres not stated)	24.16%
CN(Cc1cncnc1)Cc1cn2c(n1)CN(C1CCOC1)CC2.O=C(O)C(F)(F)F.O=C(O)C(F)(F)F (configuration not stated)	24.43%
CN(CC1CCOC1)c1ncc(Br)cn1 (configuration not stated)	10.63%
O=C(O)C(F)(F)F.[H][C@@]12CCCO[C@]1([H])[C@@H](OCC(C)C)CN2Cc1scnc1C	12.67%
COc1ccc(CNCCc2cc(F)cc3c2OCOC3)cc1OC	2.349%
CC(C)OCCS(=O)(=O)N1CCN(Cc2ccco2)CC1	12.88%
CS(=O)(=O)N1CCOCC2(CCN(c3ccccn3)C2)C1.O=C(O)C(F)(F)F (configuration not stated)	7.772%
O=C(O)C(F)(F)F.[H][C@@]12CCN(c3ncccn3)C[C@]1(COc1nccc(C)n1)CCO2	4.223%
CC1c2ncc(CN3CCN(C)CC3)n2CCN1Cc1cccnc1.O=C(O)C(F)(F)F.O=C(O)C(F)(F)F.O=C(O)C(F)(F)F.O=C(O)C(F)(F)F (configuration not stated)	29.17%
CC(C)CCN1Cc2c(C(=O)N3CCCC3)nn(C)c2C1.O=C(O)C(F)(F)F	8.208%
Cc1cc(CNC2(c3ccccc3)CCCCC2)no1	7.429%
CC(=O)NCCNC(=O)NCC1Cc2ccccc2O1 (configuration not stated)	-45.98%
CC(O)(CNC(=O)c1c(F)cccc1Cl)C1CC1 (configuration not stated)	6.313%
Nc1ncc(-c2ccc(Cl)cc2)c(C2CCCNC2)n1 (configuration not stated)	-8.441%
OCC(CO)N1CCC(c2nnc(Cn3ccnc3)n2C2CC2)CC1	-13.22%
Cc1nnc(NCC(c2ccco2)N2CCCCC2)c(C#N)c1C (configuration not stated)	8.524%
Cc1nc(N(C)C)nc(N(C)Cc2cnccn2)c1C	-21.27%
Cn1ccnc1-c1ccc(NCc2cn3c(n2)SCC3)nn1	16.04%
[H][C@]12CCCC(OCc3cccnc3)[C@@]1([H])CN(C(=O)c1cccc(F)c1)C2 (some centres not stated)	1.312%
Cc1ccc2c(c1)OCCCC2NCc1nccn1CC(C)C (configuration not stated)	-14.72%
COc1ccc(-c2cc(C3(O)CCN(C)CC3)on2)cc1	1.56%
Cc1ccc(CNC(=O)NCc2csc(C)n2)cn1	3.809%
CCN1CC2(CC1=O)CN(C(=O)C(C)C)CCN(S(C)(=O)=O)C2 (configuration not stated)	-36.73%
CC(C)C[C@H](N)COc1cccc(F)c1Oc1ccccc1	5.347%
CN1CC2(COCCN(C(=O)c3ccco3)C2)OCC1=O (configuration not stated)	4.157%
CS(=O)(=O)NCc1ccc(NC(=O)CC2=CCCCC2)cc1	3.857%
O=C(O)C(F)(F)F.O=C(O)C(F)(F)F.[H][C@@]12C[C@@H](OCc3cccnc3)CN1CCN(C(=O)c1ccco1)C2	17.39%
CCCc1nc(C(=O)N(C)Cc2cc(CC)no2)cs1	24.94%
O=C(O)C(F)(F)F.[H][C@]12CCN(C(=O)C3CC3)CC[C@@]1([H])S(=O)(=O)CCN2Cc1cccc(C)n1	-5.045%
Cc1nn(C)c(=O)c2nn(-c3ccc(F)cc3)c(C)c12	2.323%
[H][C@@]12CC[C@H](Oc3cccc(F)c3)[C@]1([H])CN(C(=O)c1cccnn1)C2	-28.87%
CC(C)CCN1CC2(CCN(C(=O)C3(C)CC3)CC2)OC1=O	-25.77%
Cc1cnn(CC2CCCN2C(=O)c2cccc3c2OCO3)c1 (configuration not stated)	-0.5868%
CCOCCCC(=O)NS(=O)(=O)c1ccc(C)s1	-24%
CC(C)c1cc(N2CCC(N)CC2)n2nccc2n1	24.37%
CCCC1(C(=O)O)CCCN(C(=O)c2cc(Cl)ccc2F)C1 (configuration not stated)	8.051%
Cn1cc(S(=O)(=O)NC(=O)C2(c3ccccc3)CCC2)cn1	-53.05%
CNC(=O)c1cnc(/C=C/c2cc(OC)c(O)c(OC)c2)s1	16.59%
CS(=O)(=O)N1CCC(C(=O)N2CCC3(CC2)OCCCO3)CC1	-17%
O=C(O)CCNC(=O)N1CCc2c([nH]c3ccc(Cl)cc23)C1	17.34%
CCc1cnc(C)nc1N(C)CCCc1cnn(C)c1	10.38%
CC(=O)c1cc2ncc(C(=O)NC3CC3)cc2[nH]1	-39.96%
O=C(O)C(F)(F)F.[H][C@@]12CCN(Cc3ccccc3OC)C[C@]1([H])O[C@H](C(=O)N1CCCC1)C2	-7.149%
Cc1cc(F)cc2c(NCC(C)(C)C(N)=O)c(C#N)cnc12	-20.78%
Cc1noc(C)c1CN1CCOC2(CCCN(c3ncccn3)C2)C1.O=C(O)C(F)(F)F (configuration not stated)	-6.266%
Cc1cccc(-c2nc(CNC3CCc4nc(C)nn4C3)no2)c1 (configuration not stated)	-5.14%
N#Cc1ccccc1C(=O)N1C[C@@H](CN2CCCCC2)[C@@H](CO)C1	1.474%
CSCc1nc(CCNC(=O)C(N)c2c(C)n[nH]c2C)cs1 (configuration not stated)	1.51%
Cc1nn(C)c(C)c1CCC(=O)N1CCCC(n2cccn2)C1 (configuration not stated)	-26.62%
O=C(c1cscn1)N1CCn2cnc(COCC3CC3)c2C1	-15.21%
O=C(c1cc(-n2cccc2)ccc1Cl)N1CCC2(CC1)OCCO2	15.68%
[H][C@@]12C[C@H](C(=O)Nc3cccnc3)[C@@]([H])(CN(S(=O)(=O)CCC)C1)O2	14.72%

For reference, 4 entries once more:

* CN(Cc1cncnc1)Cc1cn2c(n1)CN(C1CCOC1)CC2.O=C(O)C(F)(F)F.O=C(O)C(F)(F)F (configuration not stated) : 24.43%
* Cn1ccnc1-c1ccc(NCc2cn3c(n2)SCC3)nn1 : 16.04%
* Cc1noc(C)c1CN1CCOC2(CCCN(c3ncccn3)C2)C1.O=C(O)C(F)(F)F (configuration not stated) : -6.266%
* CCN(CC)CC1CN(Cc2nccs2)Cc2nccn2C1.O=C(O)C(F)(F)F.O=C(O)C(F)(F)F (configuration not stated) : 9.339%